The assay concerns the target T1, Pseudomonas phage Φ6 major capsid protein P1 (Pseudomonas phage Φ6) (UniProt P11126).
T1 sequence: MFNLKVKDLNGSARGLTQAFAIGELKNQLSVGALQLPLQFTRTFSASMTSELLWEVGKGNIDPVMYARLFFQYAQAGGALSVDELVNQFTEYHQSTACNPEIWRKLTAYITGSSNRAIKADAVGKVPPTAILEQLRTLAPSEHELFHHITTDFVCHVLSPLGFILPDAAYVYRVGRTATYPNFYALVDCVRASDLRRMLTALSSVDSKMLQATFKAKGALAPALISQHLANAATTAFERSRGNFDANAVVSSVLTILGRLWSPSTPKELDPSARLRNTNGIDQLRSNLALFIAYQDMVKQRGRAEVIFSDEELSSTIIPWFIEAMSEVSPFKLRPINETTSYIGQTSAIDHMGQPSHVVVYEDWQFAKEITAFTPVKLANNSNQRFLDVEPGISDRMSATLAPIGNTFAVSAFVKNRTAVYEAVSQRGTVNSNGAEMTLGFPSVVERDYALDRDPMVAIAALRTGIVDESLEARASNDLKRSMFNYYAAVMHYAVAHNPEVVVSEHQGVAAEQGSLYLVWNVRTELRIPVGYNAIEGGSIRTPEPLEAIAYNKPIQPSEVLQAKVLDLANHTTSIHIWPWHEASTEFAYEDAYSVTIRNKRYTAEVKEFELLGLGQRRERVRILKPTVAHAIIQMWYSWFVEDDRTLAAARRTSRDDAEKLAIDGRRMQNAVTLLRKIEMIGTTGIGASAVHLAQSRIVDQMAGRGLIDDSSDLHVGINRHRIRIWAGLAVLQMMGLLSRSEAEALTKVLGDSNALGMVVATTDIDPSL
In words: co-sedimentation; in vitro self-assembly of complete PCs from purified P1, P4, P7 and P2 at 1×P2; rate-zonal centrifugation in 10% to 30% sucrose, mean P2 copies per particle from SDS-PAGE; both purified.

Drawing on publication PMC6168860, “Dual Role of a Viral Polymerase in Viral Genome Replication and Particle Self-Assembly” (mBio, 2018), this text covers binding for 1 substance.

These are yes or no findings as the source states them, for the method shown. Binding calls can cover weak binding; strength is not graded here.

Turning to Pseudomonas phage Φ6 minor protein P7, the binding result is listed as “binds”.
